Reference: paper PMC9378736
Results are given in words; binding and its absence hold for the method and conditions named. In cells and extracts the contact can be indirect. Some binding calls cover weakened binding; strength is not graded here.

Protein sequences, listed by entry. Tags and fused reporters are not part of them. Lines headed by an entry give the natural chain unless they say otherwise; changes in a name come on top. Chains listed by the source or under a name are the forms on record and can include a tag or linker.
EZH2-92aa-3×Flag (Q15910, form named): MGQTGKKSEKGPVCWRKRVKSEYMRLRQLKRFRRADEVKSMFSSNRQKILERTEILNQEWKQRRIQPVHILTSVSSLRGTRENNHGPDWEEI
UniProt Q969H0: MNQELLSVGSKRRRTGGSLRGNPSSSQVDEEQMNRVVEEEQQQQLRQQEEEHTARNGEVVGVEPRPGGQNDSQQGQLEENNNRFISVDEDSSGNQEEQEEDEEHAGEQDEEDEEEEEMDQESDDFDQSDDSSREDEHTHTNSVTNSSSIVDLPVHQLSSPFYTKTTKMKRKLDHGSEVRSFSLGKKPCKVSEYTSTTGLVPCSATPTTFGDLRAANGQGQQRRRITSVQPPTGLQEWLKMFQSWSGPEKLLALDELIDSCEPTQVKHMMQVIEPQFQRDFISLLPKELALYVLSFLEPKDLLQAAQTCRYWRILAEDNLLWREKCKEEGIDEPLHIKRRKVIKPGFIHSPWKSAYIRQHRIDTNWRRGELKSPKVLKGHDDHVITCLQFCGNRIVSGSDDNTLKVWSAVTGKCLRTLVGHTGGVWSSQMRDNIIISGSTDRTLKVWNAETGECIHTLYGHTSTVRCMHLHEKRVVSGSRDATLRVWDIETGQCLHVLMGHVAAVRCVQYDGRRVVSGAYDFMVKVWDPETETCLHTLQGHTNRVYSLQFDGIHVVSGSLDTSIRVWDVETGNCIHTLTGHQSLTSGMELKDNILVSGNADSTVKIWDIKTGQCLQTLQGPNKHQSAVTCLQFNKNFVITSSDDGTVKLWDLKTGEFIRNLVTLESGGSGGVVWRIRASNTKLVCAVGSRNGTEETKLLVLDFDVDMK

Target: EZH2-92aa-3×Flag (human) (UniProt Q15910)
Assay: co-IP; 293T cells transfected with EZH2-92aa-3xFlag (legend; the text says MES28 GSCs); lysis in weak RIPA buffer; IP with anti-Flag and with anti-FBXW7 overnight at 4 °C, protein A/G agarose beads; washed five times with PBST; immunoblot with anti-Flag or anti-FBXW7

- binding: binds
Substance: FBXW7 (from UniProt Q969H0 1-707)
